Experiment [1] deals with recombinant human TGFBR2-Fc (human) (UniProt P37173). Put plainly: BLI. (BLI is a label-free optical method that tracks binding on a fibre tip over time.)
Experiment [2] shares this target. In words: SPR. (In general: Surface plasmon resonance follows binding to a sensor surface in real time, without labels.)
Experiment [3] concerns the target T1, recombinant human ACTRIIB-Fc (human) (UniProt Q13705).
T1 sequence: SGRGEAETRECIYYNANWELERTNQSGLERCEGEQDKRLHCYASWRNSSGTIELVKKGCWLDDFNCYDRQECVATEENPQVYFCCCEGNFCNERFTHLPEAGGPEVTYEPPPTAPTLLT
In words: BLI.

Amino acid sequences for entries named in this document (tags omitted). Residues count along the entry.
UniProt P37173, residues 23-166: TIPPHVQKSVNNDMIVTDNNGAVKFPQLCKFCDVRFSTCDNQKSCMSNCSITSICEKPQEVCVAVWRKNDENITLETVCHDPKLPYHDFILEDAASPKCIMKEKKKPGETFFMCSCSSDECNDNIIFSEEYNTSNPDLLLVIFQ

Results are given in words; binding and its absence hold for the method and conditions named. For some of these results: Sequences can lack the tags named with a protein.

B1: recombinant human GDF3 (ligand, UniProt Q9NR23 251-364)
chain: AAIPVPKLSCKNLCHRHQLFINFRDLGWHKWIIAPKGFMANYCHGECPFSLTISLNSSNYAFMQALMHAVDPEIPQAVCIPTKLSPISMLYQDNNDNVILRHYEDMVVDECGCG
B1: the binding entry in experiment [1] is listed as “no binding (tested: 50 nM)”; in experiment [2], “no binding (tested: 12.5 nM)”.

B2: recombinant mouse GDF3 (ligand, UniProt Q07104 253-366)
chain: AAISVPKGFCRNFCHRHQLFINFQDLGWHKWVIAPKGFMANYCHGECPFSMTTYLNSSNYAFMQALMHMADPKVPKAVCVPTKLSPISMLYQDSDKNVILRHYEDMVVDECGCG
For B2, the binding entry in experiment [3] and in experiment [1] was “no binding (tested: 50 nM)” in each case.

The record behind these values is paper doi:10.1101/2022.11.07.515236.
